Assay results as given in article doi:10.1101/2021.11.06.467519.
These are yes or no findings as the source states them, for the method shown. In cells and extracts the contact can be indirect.

The chains behind the UniProt entries cited, without tags or fusion partners.
UniProt Q9HC98: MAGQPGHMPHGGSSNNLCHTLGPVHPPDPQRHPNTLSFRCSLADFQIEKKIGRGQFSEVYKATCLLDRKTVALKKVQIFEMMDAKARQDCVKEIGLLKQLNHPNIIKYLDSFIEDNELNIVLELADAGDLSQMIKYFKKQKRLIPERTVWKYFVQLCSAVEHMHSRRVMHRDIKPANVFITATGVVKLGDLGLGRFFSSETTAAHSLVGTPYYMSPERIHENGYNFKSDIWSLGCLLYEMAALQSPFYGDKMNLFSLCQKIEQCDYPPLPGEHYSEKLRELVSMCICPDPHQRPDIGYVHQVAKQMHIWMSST

Target: T1, YME1L1 (human (endogenous in HTR8/SVNeo)) (UniProt Q96TA2)
T1 sequence: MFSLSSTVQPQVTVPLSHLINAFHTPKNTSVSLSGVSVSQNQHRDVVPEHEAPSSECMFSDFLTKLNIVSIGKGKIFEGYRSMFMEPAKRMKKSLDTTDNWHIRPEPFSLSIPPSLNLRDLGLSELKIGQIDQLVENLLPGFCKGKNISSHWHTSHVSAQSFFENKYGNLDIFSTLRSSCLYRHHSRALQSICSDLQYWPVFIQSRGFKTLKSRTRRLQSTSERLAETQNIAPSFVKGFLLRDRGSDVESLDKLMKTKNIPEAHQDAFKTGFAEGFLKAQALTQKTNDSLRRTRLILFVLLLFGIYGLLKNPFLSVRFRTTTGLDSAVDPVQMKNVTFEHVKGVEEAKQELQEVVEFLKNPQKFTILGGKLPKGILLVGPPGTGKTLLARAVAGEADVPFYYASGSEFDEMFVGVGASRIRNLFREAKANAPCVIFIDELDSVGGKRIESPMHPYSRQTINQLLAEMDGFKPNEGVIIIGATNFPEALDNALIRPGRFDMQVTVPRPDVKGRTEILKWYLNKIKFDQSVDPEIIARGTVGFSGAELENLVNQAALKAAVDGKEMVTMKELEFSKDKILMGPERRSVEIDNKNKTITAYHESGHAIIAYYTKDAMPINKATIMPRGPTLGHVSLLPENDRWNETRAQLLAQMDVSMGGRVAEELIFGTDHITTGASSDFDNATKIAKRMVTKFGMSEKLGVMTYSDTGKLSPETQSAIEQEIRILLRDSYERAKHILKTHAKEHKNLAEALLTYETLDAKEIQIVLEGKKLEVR
Assay: co-IP

binding: no binding
Substance: NEK6 kinase (from UniProt Q9HC98 1-313) (enzyme)
